PubChem BioAssay AID1259308 – NCATS, 2017

- Screen: 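Knock-downs that increase output of a recombinant reporter protein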 (primary screen)
- System: human HEK293 embryonic kidney cells stably expressing firefly luciferase (HEK-CMV-Luc2-Hygro)
- Knock-down reagent: single siRNA against human genes, 0.8 pmol siRNA per well
- Time to read-out: 72 h
- Measured: 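Reporter luminescence and viable-cell signal on separate replicate plates, given as percent of non-targeting control and median/MAD z-scores, plus per-cell luciferase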
- Direction: total luciferase, z-score: higher = more reporter protein produced
- Call rule: 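An siRNA counts as active if its total luciferase robust z-score exceeds 3; genes with two or more such siRNAs out of three were retested with fresh siRNAs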
- Calls: active = raised luciferase; inactive = no rise
Shown is one part, drawn at random, of about 59,000 reagents tested. About 1,510 of all reagents (2.6%) were called active. 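Calls use total luciferase alone and ignore viability, so some active siRNAs may act by altering cell number.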 A number with no mark means an inactive call. The numbers tell different reagents against one gene apart. Not all columns of the deposit are shown.

Depletion of RFC5 #1 gave: total luciferase, z-score 0.0415.
Depletion of RFC5 #2 gave: total luciferase, z-score -1.04.
RFC5 #3 gave total luciferase, z-score -0.58.
After knock-down of USP46 #1 the results were total luciferase, z-score 0.947.
USP46 #2 gave total luciferase, z-score -1.03.
With knock-down of USP46 #3, the record shows total luciferase, z-score 2.78.

2 neighbouring entries already listed, for reference:
RFC5 #3 — total luciferase, z-score = -0.58
USP46 #1 — total luciferase, z-score = 0.947

Continued.
SLC9B1 #1 scored total luciferase, z-score 0.74.
With knock-down of SLC9B1 #2 the results were total luciferase, z-score 0.351.
SLC9B1 #3 scored total luciferase, z-score 0.703.
TNS3 #1 scored total luciferase, z-score 0.0265.
After knock-down of TNS3 #2, the record shows total luciferase, z-score -2.25.
With knock-down of TNS3 #3, the screen gave total luciferase, z-score -2.11.
